According to US20210102174A1 (TAIPEI VETERANS GENERAL HOSPITAL, published 2021):
Results are given in words; binding and its absence hold for the method and conditions named. Binding seen in cells or lysates may run through a third protein. Some binding calls cover weakened binding; strength is not graded here. For some of these results: Sequences can lack the tags named with a protein.

Protein sequences, listed by entry. Tags and fused reporters are not part of them.
UniProt Q8BX09: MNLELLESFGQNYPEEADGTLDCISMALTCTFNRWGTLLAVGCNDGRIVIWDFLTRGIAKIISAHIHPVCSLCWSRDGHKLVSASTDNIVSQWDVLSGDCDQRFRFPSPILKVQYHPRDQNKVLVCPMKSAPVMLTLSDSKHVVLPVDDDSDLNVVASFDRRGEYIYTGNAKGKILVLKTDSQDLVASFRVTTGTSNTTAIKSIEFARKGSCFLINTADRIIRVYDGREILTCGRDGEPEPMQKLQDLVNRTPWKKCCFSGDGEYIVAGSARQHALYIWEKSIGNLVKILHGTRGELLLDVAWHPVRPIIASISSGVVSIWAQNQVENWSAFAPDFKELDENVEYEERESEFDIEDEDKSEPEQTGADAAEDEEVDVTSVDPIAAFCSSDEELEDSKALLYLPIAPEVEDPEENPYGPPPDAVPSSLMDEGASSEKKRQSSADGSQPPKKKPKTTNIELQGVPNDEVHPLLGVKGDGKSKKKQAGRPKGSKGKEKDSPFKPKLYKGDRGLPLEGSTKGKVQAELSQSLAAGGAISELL
UniProt P48432: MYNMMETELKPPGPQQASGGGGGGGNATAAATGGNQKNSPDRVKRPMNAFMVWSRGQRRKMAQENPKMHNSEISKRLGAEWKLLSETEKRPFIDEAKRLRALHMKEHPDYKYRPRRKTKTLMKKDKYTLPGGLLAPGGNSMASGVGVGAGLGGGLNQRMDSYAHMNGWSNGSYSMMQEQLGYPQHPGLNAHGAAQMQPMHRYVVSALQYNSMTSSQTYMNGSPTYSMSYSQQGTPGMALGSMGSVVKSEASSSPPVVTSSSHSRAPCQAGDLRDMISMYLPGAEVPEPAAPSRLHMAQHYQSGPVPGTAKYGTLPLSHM
UniProt P20263: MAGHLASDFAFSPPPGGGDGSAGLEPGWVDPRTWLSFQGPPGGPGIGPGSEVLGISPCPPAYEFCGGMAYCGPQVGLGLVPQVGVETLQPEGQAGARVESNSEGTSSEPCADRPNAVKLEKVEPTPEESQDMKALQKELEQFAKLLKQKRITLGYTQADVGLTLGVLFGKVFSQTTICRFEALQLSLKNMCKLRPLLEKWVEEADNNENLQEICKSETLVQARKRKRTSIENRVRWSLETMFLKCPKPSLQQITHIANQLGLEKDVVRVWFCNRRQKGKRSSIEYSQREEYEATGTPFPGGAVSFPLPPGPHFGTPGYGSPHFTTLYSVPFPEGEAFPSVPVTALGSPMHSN

How the values were obtained:
[1] = molecular target: Rbbp5 (endogenous) (mouse) (UniProt Q8BX09); assay: co-IP with anti-Ash2l antibody from the 4th gel filtration fraction of ESC nuclear extract
[2] = molecular target: Rbbp5 (endogenous) (mouse) (UniProt Q8BX09); assay: co-IP from gel filtration fraction 4 of ESC nuclear extract
[3] = molecular target: Recombinant GST-fusion protein of Rbbp5 (UniProt Q8BX09); assay: in vitro Flag pull-down with GST-fusion proteins, Coomassie staining
[4] = molecular target: Recombinant GST-fusion protein of Sox2 (UniProt P48432); assay: as above
[5] = molecular target: T1, Recombinant GST-fusion protein of Nanog (UniProt Q80Z64); assay: as above
T1 sequence (looked up): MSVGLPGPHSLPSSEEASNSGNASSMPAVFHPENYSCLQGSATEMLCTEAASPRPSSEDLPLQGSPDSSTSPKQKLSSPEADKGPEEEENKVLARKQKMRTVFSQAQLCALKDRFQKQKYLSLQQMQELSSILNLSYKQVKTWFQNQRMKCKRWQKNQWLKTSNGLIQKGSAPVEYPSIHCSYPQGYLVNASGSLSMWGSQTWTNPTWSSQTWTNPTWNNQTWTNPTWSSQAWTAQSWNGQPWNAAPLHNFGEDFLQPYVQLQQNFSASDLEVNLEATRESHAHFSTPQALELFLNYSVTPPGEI

[6] = molecular target: Rbbp5 (endogenous) (mouse) (UniProt Q8BX09); assay: co-IP of Flag-tagged Ash2l constructs from nuclear extracts, Western blot
[7] = molecular target: Recombinant GST-fusion protein of Sox2 (UniProt P48432); assay: in vitro pull-down with purified recombinant proteins, Western blot or Coomassie staining
[8] = molecular target: T1, Recombinant GST-fusion protein of Nanog; assay: as above
[9] = molecular target: Recombinant GST-fusion protein of Oct4 (UniProt P20263); assay: as above
[10] = molecular target: Recombinant GST-fusion protein of Sox2 (UniProt P48432); assay: GST pull-down with recombinant proteins, Western blot
[11] = molecular target: T1, Recombinant GST-fusion protein of Nanog; assay: as above
[12] = molecular target: Recombinant GST-fusion protein of Oct4 (UniProt P20263); assay: as above

Measured: binding

Ash2l (endogenous, in nuclear extracts of mouse embryonic stem cells) (from UniProt Q91X20 1-623)
binds: [1] | [2]

Flag-tagged Ash2l with W118A point mutation (from UniProt Q91X20 1-623)
binds: [3] | [4] | [5]

Flag-tagged Ash2l-C terminus (387-623, the SPRY domain) (from UniProt Q91X20 387-623)
binds: [6]

Flag-tagged full-length Ash2l (Ash2l-Full length: 1-623) (from UniProt Q91X20 1-623)
binds: [6] | [7] | [8] | [9] | [10] | [11] | [12]

B1: Flag-tagged Ash2l-N terminus (1-172, the PHD domain) (other, UniProt Q91X20 1-172, looked up)
chain: MAAAGAGPGPGVSAGPGPGAAASATTAEDRETEPVAAGAGEGPSAAPGAEPSSGEAESGDANLVDVSGLETESSNGKDTLEGTGDTSEVMDTQAGSVDEENGRQLGEVELQCGICTKWFTADTFGIDTSSCLPFMTNYSFHCNVCHHSGNTYFLRKQANLKEMCLSALANLT
notes: range 1-172; also called Flag-Ash2l-N; not shown: 3xFlag tag of the p3xFlag plasmid
binds: [7] | [8] | [9] | [10] | [11] | [12]
